{"source": "patent US20230172919A1", "about": "“AN INSULIN SENSITIZER FOR USE IN THE PREVENTION AND/OR TREATMENT OF THE DAMAGES CAUSED BY RETINAL DETACHMENT” (SORBONNE UNIVERSITE, priority 2020, published 2023)", "system": "RD-induced cone loss and subretinal IBA-1+ MPs in C57BL/6J mice", "assay": "Mouse model of RD (retinal detachment), retinal flat mount quantification", "format": "in vivo, mouse (C57BL/6J)", "conditions": "day 7 of RD, daily intraperitoneal 10 mg/kg from 3 days before and throughout RD, versus vehicle (DMSO 5%)", "description": "Wild-type (C57BL/6J) mice were purchased from Janvier Labs at the age of 8 weeks. Mice were housed in the animal facility under specific pathogen-free condition, in a 12 h/12 h light/dark (100-500 lux) cycle with water and normal diet food available ad libitum. All experimental protocols and procedures were approved by the local animal care ethics committee (N°APAFIS#5201-20160427103344).\nRD was induced with a previously described method (Nakazawa et al., 2006, 2007a, 2011). Briefly, mice were anesthetized with an intraperitoneal injection of xylazine hydrochloride (10 mg/kg) and ketamine hydrochloride (100 mg/kg) and pupils were dilated with topical phenylephrine (5%) and tropicamide (0.5%). A 30-gauge needle was first used to create two sclerotomies 1.5 mm posterior to the limbus. […]\nEyes were enucleated, fixed in 4% paraformaldehyde for 1 hour at room temperature and sectioned at the limbus; the cornea and lens were discarded. […] The retinas were flat mounted and viewed with a fluorescence microscope (DM5500, Leica). […] Each cell population was manually counted in a masked fashion. IBA-1+ cells were quantified on flat mounts on the outer segment side of the detached retina while PNA+ cone arrestin+ cells were counted on confocal microscopy Z-stacks using ImageJ software.", "note": "At least one structure is not confirmed: it was looked up by name or label, or the drawing left a doubt."}
{"smiles": "CN(CCOc1ccc(CC2SC(=O)NC2=O)cc1)c1ccccn1", "note": "(stereo not shown) [rosiglitazone]", "values": [{"measurement": "PNA+CAR+ cone loss", "result": "very significantly inhibited"}]}
